Reference: paper PMC12517565
Like-named read-outs stand apart in the source and are kept apart here. These are yes or no findings as the source states them, for the method shown. In cells and extracts the contact can be indirect. These calls come from enrichment with a bait or labelling near it, and not all partners need be listed.

The chains behind the UniProt entries cited, without tags or fusion partners.
UniProt A0A125YT62: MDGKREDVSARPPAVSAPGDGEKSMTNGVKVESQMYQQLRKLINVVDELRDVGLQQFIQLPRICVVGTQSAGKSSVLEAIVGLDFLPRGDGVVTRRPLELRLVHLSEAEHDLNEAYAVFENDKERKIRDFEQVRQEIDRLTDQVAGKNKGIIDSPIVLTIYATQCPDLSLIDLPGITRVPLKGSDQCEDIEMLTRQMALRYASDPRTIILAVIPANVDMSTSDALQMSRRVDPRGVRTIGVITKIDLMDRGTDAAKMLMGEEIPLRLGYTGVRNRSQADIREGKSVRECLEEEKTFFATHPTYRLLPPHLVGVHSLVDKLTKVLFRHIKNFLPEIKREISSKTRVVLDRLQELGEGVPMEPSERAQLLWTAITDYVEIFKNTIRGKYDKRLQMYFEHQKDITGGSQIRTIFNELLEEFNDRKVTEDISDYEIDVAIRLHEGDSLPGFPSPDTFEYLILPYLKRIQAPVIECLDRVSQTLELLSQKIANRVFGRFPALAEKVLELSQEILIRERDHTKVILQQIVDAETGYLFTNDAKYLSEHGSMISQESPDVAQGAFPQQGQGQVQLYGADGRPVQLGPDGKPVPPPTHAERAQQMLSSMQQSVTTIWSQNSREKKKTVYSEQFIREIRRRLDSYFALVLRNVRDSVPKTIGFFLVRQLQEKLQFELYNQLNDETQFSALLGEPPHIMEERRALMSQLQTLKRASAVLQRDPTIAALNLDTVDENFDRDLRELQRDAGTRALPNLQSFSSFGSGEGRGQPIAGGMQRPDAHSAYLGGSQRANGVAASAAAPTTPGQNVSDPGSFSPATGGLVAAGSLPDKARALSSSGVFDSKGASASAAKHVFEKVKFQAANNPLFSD

B1: CRT, a PLVAC transporter (protein, UniProt A0A059XKS9 1-890)
chain: MPPAHHGSGGRRRPGRGNKGKRDTEAGMTASPDPGYMRPETHAAPSQQTDVRSPASAREHRNADVGVAAPDALTPNAGEQKEVEGVAKVNVAVSSDQPPDWAPSQSDLPPSLSPTTASRPATSSRSPRARSRHSPVASSSAFSSPAPSASALTSASGVPEAPLAAPELKHTLAADEGNPEPRLEGPVERLHARQENPLTDSSDGSYILLEEGESQRACLDRKNRHLRQTTPPGVWTTADLASQNSHSASFASGFRRALLPSGGSGDHDEQASDCRASLRGMQRPCFGSPSTDTRMGAAEGLPLASRRRRQHWRRELRAFGAVALACLRASWHGMKRARLRATRWIDRNAATVRVACYTFLLLVTSTGNTICFKKMIDKMPNYSPCLTQVTTVVFVPVFFALSLYTDYAGGLPQEMADFPKRNFAVMGFLDSFSGVMAIIGAVHTTGTTQVVLQQSCIVFSLLASIVMLRKRFHAAHYLGALVIILGVLVVKLPDLLHPSSDGGGDVFVFNLLYLLSNLPTAVSCVYKEVAFRGVEMGTNYLQAWVALFQFLIGFLVLPLNALPVLGPQRVPLAELPASLWNGTRCLFGFNTIVTNCGGAGNMESPCDNCEGAWKYVGMYLSFNLLYNMFIIFVVKSGGAALTFLVSTLRLPVTALAFCSRAIMGDRAVPPKATDFYGLLVLILGLVIYRAGGIMKRRAQRRAVAAARGHTSSPMMLTPREEEQIGTIFVEEVFAAGELEDGGVTEEDETDDDTSEVEVHPVFSSVVASEPPHVYVHTKRHSHSDGGYHKLPACGSSPAAFTPFTQRMPGTGSESCSRRRNRDGDDERSPRSHACSFDEETGFAGGTGTGRHFSSPGTALSPNRVGGYEPPSMHAVQPAVIGKSRANNGCI

How the values were obtained:
Test in all cases: affinity purification with mass spectrometry; the same α-GFP (TgTEP-YFP) and α-HA (AP4ε-3xHA) immunoprecipitates from parasite lysate, on-bead trypsin digest, LC-MS/MS, volcano plots against control; biological triplicates
[1] = target: T. gondii AP4 epsilon subunit (TgAP4ε) tagged with 3xHA (T. gondii) (UniProt S8F423)
[2] = target: T. gondii tepsin (TgTEP, TGGT1_301410) endogenously tagged with YFP (T. gondii)
[3] = target: T. gondii AP4 epsilon subunit (TgAP4ε) tagged with 3xHA (T. gondii) (UniProt S8F423); remark: listed apart in the source

| Molecule | binding [1] | binding [2] | binding [3] |
| --- | --- | --- | --- |
| dynamin-related protein B (DrpB) (from UniProt A0A125YT62 1-860) | binds weakly | – | – |
| B1 | – | binds | binds |
